These are yes or no findings as the source states them, for the method shown.
T1: Rab6B^T27N, inactive mutant (mouse) (UniProt P61294)
T1 sequence: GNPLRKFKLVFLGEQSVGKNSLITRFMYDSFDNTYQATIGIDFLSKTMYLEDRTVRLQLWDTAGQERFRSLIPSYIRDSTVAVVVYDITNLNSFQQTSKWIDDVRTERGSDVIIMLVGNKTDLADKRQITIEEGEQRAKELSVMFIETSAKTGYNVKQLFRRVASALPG


How the values were obtained:
[1] = molecular target: T1, Rab6B^T27N, inactive mutant (mouse); assay: SEC; analytical gel filtration, Superdex 200 Increase 10/300 GL, 50 mM Tris pH 7.5, 100 mM NaCl, 2 mM MgCl2, 1 mM DTT; both purified
[2] = molecular target: Rab6B^Q72L, GTPase domain (residues 8-176), constitutively active mutant (mouse) (UniProt P61294); assay: condition: typically 400 μM in the syringe into 40 μM in the cell; ITC; MicroCal PEAQ-ITC, 25 °C, 50 mM Tris pH 7.5, 100 mM NaCl, 2 mM MgCl2; typically one protein (400 μM) in the syringe into its binding protein (40 μM) in the cell; both purified

| Binder | binding [1] | binding [2] |
| --- | --- | --- |
| ELKS1 C-terminal coiled-coil region (residues 761-927) (domain or fragment, UniProt Q811U3 761-927) QVKDQNKKVANLKHKEQVEKKKSAQMLEEARRREDSLSDSSQQLQVEELLMAMEKVKQELESMKAKLSSTQQSLAEKETHLTNLRAERRKHLEEVLEMKQEALLAAISEKDANIALLELSSSKKKTQEEVAALKREKDRLVQQLKQQTQNRMKLMADNYEDDHFRSS | no binding | – |
| ELKS1_RBD D871R (domain or fragment, UniProt Q811U3 849-922) RKHLEEVLEMKQEALLAAISEKRANIALLELSSSKKKTQEEVAALKREKDRLVQQLKQQTQNRMKLMADNYEDD | – | no binding |
| ELKS1_RBD K905E (domain or fragment, UniProt Q811U3 849-922) RKHLEEVLEMKQEALLAAISEKDANIALLELSSSKKKTQEEVAALKREKDRLVQQLEQQTQNRMKLMADNYEDD | – | no binding |

Reference: PMC10267580
